Patent US20240392002A1
No constants are given. Whether binding was seen depends on the method and setting. Some entries that bind do so weakly or less than the wild type.

Chains of the proteins cited; added tags and fusions are not shown. Lines headed by an entry give the natural chain unless they say otherwise; changes in a name come on top.
UniProt Q01973: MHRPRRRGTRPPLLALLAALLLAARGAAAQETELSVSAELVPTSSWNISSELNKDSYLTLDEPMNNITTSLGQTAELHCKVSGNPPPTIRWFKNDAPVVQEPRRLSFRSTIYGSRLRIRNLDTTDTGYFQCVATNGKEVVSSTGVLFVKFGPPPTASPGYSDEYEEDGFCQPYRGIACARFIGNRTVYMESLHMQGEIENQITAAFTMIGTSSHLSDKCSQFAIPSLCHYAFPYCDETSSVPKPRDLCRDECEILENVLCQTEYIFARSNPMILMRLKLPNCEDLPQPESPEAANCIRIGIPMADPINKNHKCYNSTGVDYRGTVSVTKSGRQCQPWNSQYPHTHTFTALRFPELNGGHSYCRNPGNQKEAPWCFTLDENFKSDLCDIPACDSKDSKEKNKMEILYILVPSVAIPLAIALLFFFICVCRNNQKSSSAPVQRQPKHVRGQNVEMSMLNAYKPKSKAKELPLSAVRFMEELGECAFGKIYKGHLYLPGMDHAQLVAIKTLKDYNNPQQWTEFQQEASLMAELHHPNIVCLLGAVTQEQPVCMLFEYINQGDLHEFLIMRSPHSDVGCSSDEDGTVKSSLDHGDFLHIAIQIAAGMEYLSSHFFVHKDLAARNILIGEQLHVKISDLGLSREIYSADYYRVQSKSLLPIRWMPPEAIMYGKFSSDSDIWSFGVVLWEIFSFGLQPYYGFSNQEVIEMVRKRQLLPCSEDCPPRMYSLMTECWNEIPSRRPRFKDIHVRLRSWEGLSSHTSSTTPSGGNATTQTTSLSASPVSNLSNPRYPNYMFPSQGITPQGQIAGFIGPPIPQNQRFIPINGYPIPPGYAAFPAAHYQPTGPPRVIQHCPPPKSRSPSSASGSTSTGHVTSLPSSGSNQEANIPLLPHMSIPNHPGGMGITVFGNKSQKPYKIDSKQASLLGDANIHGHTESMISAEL
UniProt Q01974: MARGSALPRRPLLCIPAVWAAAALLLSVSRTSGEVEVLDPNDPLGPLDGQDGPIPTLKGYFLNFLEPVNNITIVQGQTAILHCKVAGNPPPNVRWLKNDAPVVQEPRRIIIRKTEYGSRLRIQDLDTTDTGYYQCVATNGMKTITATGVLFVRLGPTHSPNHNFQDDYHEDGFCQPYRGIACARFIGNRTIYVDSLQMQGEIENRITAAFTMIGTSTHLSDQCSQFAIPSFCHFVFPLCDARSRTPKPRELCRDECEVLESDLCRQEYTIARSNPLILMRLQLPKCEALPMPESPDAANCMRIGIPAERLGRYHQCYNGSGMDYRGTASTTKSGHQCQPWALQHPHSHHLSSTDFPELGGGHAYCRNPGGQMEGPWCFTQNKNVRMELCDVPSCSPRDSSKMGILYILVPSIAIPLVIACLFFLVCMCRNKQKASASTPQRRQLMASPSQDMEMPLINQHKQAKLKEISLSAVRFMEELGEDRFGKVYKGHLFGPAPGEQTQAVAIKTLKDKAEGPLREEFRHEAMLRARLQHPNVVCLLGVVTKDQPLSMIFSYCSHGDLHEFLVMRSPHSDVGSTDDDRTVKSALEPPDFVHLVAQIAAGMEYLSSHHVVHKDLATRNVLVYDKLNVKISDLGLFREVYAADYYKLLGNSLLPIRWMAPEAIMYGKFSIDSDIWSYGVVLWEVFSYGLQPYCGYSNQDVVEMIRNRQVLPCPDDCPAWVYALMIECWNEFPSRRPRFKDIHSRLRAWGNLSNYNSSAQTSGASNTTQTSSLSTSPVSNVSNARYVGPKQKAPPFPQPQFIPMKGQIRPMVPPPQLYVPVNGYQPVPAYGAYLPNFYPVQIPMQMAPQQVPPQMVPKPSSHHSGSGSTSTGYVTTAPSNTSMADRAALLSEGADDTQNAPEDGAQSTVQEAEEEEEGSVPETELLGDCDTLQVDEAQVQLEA

How the values were obtained:
[1] = target: ROR1 Kringle domain (human) (UniProt Q01973); test: BLI, phases labelled 'capture' and 'IgG binding', one ROR1 domain for each panel
[2] = target: ROR1 Frizzled domain (human) (UniProt Q01973); test: as above
[3] = target: extracellular domain of human ROR1 (human) (UniProt Q01973); test: BLI, IgG1 on biosensor, soluble ROR ectodomain
[4] = target: ROR1 Frizzled domain (human) (UniProt Q01973); test: BLI, IgG1 on biosensor, soluble ROR1 domain
[5] = target: ROR1 Ig-like domain (human) (UniProt Q01973); test: BLI, IgG1 on biosensor, soluble ROR1 domain
[6] = target: extracellular domain of human ROR2 (human) (UniProt Q01974); test: BLI, IgG1 on biosensor, soluble ROR ectodomain

Row | binding [3] | binding [5] | Binder | other results
1 |  |  | I2A-10 D54E Y55Q IgG (antibody, V domains shown) VH: EVQLVESGGGLVQPGGSLRLSCAASGFTFSSYFIHWVRQAPGKGLEWVAGIYPSEGYTSYADSVKGRFTISADTSKNTAYLQMNSLRAEDTAVYYCARYYVSGMDYWGQGTLVTVSS VL: DIQMTQSPSSLSASVGDRVTITCRASQSVSSAVAWYQQKPGKAPKLLIYSASSLQSGVPSRFSGSRSGTDFTLTISSLQPEDFATYYCQQYYYYPGTFGQGTKVEIKR | binding [1]: no binding (tested: not shown); binding [2]: no binding (tested: not shown)
2 | binds |  | I2A-26 IgG1 (antibody, V domains shown) VH: EVQLVESGGGLVQPGGSLRLSCAASGFTFQSYDIHWVRQAPGKGLEWVAAIDPTGRSTAYADSVKGRFTISADTSKNTAYLQMNSLRAEDTAVYYCARDYGVFDYWGQGTLVTVSS VL: DIQMTQSPSSLSASVGDRVTITCRASQSVSSAVAWYQQKPGKAPKLLIYSASSLYSGVPSRFSGSRSGTDFTLTISSLQPEDFATYYCQQFYRSPATFGQGTKVEIK | binding [4]: binds
3 | binds | binds | I2A-37 IgG1 (antibody, V domains shown) VH: EVQLVESGGGLVQPGGSLRLSCAASGFTFSWYGIHWVRQAPGKGLEWVAYIDSYTSSTYYADSVKGRFTISADTSKNTAYLQMNSLRAEDTAVYYCARSHFGHYDYVMDYWGQGTLVTVSS VL: DIQMTQSPSSLSASVGDRVTITCRASQSVSSAVAWYQQKPGKAPKLLIYSASSLYSGVPSRFSGSRSGTDFTLTISSLQPEDFATYYCQQAYDQLYTFGQGTKVEIK | 
4 | binds | binds | I2A-30 IgG1 (antibody, V domains shown) VH: EVQLVESGGGLVQPGGSLRLSCAASGFTFDSYFIHWVRQAPGKGLEWVAYIYSWGSYTHYADSVKGRFTISADTSKNTAYLQMNSLRAEDTAVYYCARGHRRYFALDYWGQGTLVTVSS VL: DIQMTQSPSSLSASVGDRVTITCRASQSVSSAVAWYQQKPGKAPKLLIYSASSLYSGVPSRFSGSRSGTDFTLTISSLQPEDFATYYCQQVYFTPGTFGQGTKVEIK | 
5 | binds |  | I2A-36 IgG1 (antibody, V domains shown) VH: EVQLVESGGGLVQPGGSLRLSCAASGFTFSQYWIHWVRQAPGKGLEWVAAIYSSTKYTIYADSVKGRFTISADTSKNTAYLQMNSLRAEDTAVYYCARESMYFYSYGLDYWGQGTLVTVSS VL: DIQMTQSPSSLSASVGDRVTITCRASQSVSSAVAWYQQKPGKAPKLLIYSASSLYSGVPSRFSGSRSGTDFTLTISSLQPEDFATYYCQQLPSTPLTFGQGTKVEIK | binding [6]: binds
6 | binds | binds | I2A-33 IgG1 (antibody, V domains shown) VH: EVQLVESGGGLVQPGGSLRLSCAASGFTFDDYYIHWVRQAPGKGLEWVAWIDSYGGYTSYADSVKGRFTISADTSKNTAYLQMNSLRAEDTAVYYCARSSYYYPGGFDYWGQGTLVTVSS VL: DIQMTQSPSSLSASVGDRVTITCRASQSVSSAVAWYQQKPGKAPKLLIYSASSLYSGVPSRFSGSRSGTDFTLTISSLQPEDFATYYCQQWDSTLYTFGQGTKVEIK | 
7 | binds |  | I2A-8 IgG1 (antibody, V domains shown) VH: EVQLVESGGGLVQPGGSLRLSCAASGFTFYGYYIHWVRQAPGKGLEWVAGIRPGGTYTYYADSVKGRFTISADTSKNTAYLQMNSLRAEDTAVYYCARYRYPAFDYWGQGTLVTVSS VL: DIQMTQSPSSLSASVGDRVTITCRASQSVSSAVAWYQQKPGKAPKLLIYSASSLYSGVPSRFSGSRSGTDFTLTISSLQPEDFATYYCQQRRQHLWTFGQGTKVEIK | 
8 | binds |  | I2A-12 IgG1 (antibody, V domains shown) VH: EVQLVESGGGLVQPGGSLRLSCAASGFTFTTYYIHWVRQAPGKGLEWVAYISPEDGYTSYADSVKGRFTISADTSKNTAYLQMNSLRAEDTAVYYCARAYYSAVMDYWGQGTLVTVSS VL: DIQMTQSPSSLSASVGDRVTITCRASQSVSSAVAWYQQKPGKAPKLLIYSASSLYSGVPSRFSGSRSGTDFTLTISSLQPEDFATYYCQQSWSPATTFGQGTKVEIK | binding [4]: binds
9 | binds | binds | I2A-13 IgG1 (antibody, V domains shown) VH: EVQLVESGGGLVQPGGSLRLSCAASGFTFSYYFIHWVRQAPGKGLEWVAVIYPDGGYTLYADSVKGRFTISADTSKNTAYLQMNSLRAEDTAVYYCARIYYPSGAMDYWGQGTLVTVSS VL: DIQMTQSPSSLSASVGDRVTITCRASQSVSSAVAWYQQKPGKAPKLLIYSASSLYSGVPSRFSGSRSGTDFTLTISSLQPEDFATYYCQQTYWYPGTFGQGTKVEIK | binding [6]: binds
